Results are given in words; binding and its absence hold for the method and conditions named. Binding seen in cells or lysates may run through a third protein. Some entries that bind do so weakly or less than the wild type.
Biological target: T1, β-catenin (mouse (endogenous in heart ventricular tissue)), Q02248
T1 chain: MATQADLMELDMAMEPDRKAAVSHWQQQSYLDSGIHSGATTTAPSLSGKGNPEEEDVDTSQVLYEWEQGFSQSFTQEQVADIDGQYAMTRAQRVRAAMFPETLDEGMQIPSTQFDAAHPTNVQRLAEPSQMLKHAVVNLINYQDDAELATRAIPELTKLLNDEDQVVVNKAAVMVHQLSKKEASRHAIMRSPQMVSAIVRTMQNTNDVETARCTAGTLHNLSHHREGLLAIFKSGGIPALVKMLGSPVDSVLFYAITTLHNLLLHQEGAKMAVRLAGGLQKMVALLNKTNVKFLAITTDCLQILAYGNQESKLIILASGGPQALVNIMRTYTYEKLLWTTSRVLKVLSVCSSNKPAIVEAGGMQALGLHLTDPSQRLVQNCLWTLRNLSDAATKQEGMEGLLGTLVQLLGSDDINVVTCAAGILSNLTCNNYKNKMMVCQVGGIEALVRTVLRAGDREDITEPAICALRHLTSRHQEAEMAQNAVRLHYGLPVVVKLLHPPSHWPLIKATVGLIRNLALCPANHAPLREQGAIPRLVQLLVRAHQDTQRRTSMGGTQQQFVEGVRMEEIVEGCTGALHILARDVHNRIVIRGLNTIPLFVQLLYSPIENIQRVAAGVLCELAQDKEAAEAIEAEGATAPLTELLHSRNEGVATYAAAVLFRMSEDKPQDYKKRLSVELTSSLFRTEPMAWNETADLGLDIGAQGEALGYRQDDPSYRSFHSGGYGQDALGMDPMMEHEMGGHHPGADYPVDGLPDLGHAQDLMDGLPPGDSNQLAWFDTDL
Experiment: co-IP; extracts of mouse ventricular tissue (Sham, Sham + EMPA, TAC + VE, TAC + EMPA) cleared with Protein A/G beads; incubated with anti-β-catenin or anti-TCF7L2 antibody at 4 °C overnight, Protein A/G beads 4 h, washed three times with lysis buffer; Western blot; input 10% of lysate
Conditions: remark: other sources report otherwise

- binding: binds
B1: TCF7L2, Q924A0 1-459 (protein)
chain: MPQLNGGGGDDLGANDELISFKDEGEQEEKNSENSSAERDLADVKSSLVNESETNQDSSSDSEAERRPPPRSESFRDKSRESLEEAAKRQDGGLFKGPPYPGYPFIMIPDLTSPYLPNGSLSPTARTYLQMKWPLLDVQAGSLQSRQTLKDARSPSPAHIVSNKVPVVQHPHHVHPLTPLITYSNEHFTPGNPPPHLPADVDPKTGIPRPPHPPDISPYYPLSPGTVGQIPHPLGWLVPQQGQPVYPITTGGFRHPYPTALTVNASMSRFPPHMVPPHHTLHTTGIPHPAIVTPTVKQESSQSDVGSLHSSKHQDSKKEEEKKKPHIKKPLNAFMLYMKEMRAKVVAECTLKESAAINQILGRRWHALSREEQAKYYELARKERQLHMQLYPGWSARDNYGKKKKRKRDKQPGETNEHSECFLNPCLSLPPITDLSAPKKCRARFGLDQQNNWCGPCSL

Reference: publication PMC11631586
